Assay results as given in PubChem BioAssay AID256 (DTP/NCI, 2004).
The list does not hold the whole screen: it gathers tests that were run many times, whatever their T/C, doses with no T/C, and many T/C values between a quarter and a half above the control. Other doses and runs of a compound stand elsewhere. T/C: endpoint of the treated group in % of that of the vehicle group. Some doses have a count of surviving animals in place of a T/C: the source holds a T/C of zero for them, seemingly a mark for toxic or unscored doses. Some doses without a T/C left all or most animals alive at the check, yet need not have been tolerated: survival well below the control is almost never listed, so the zero probably covers shortened survival too. Counts of survivors are from the toxicity check (mostly the fifth day) where no day follows; animals may have died later. Schedules are NCI's codes, taken here to give the interval after Q, in days (D) or hours (H), and the number of doses after X.

Test system: CD2F1 mice, L1210 leukemia ip, survival T/C
Test: NCI In Vivo Anticancer Drug Screen. Data for tumor model L1210 Leukemia (intraperitoneal) in CD2F1 (CDF1) mice
Details: T/C endpoint: mean survival time, higher T/C = longer survival
Outline: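 Compound-dosed mice with transplantable tumor versus matched vehicle controls; endpoint ratio T/C reported.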

[1] = dose: 400.0 mg/kg/injection, schedule: Q01DX009 (ip), vehicle: saline with Tween-80

## c1ccc(C[N+]23CCC(CC2)CC3)cc1
dose: 25.0 mg/kg/injection, schedule: Q04DX003 (ip), vehicle: saline
  survivor count: 6 of 6

## CN(Cc1ccccc1)/C(N)=N/N
dose: 300.0 mg/kg/injection, schedule: Q01DX001 (ip), vehicle: saline
  survivor count: 2 of 6

## O=C1C=C(Cl)C(=O)N1c1cccc(Cl)c1
dose: 25.0 mg/kg/injection, schedule: Q04DX003 (ip), vehicle: saline with Tween-80
  survivor count: 2 of 6
dose: 50.0 mg/kg/injection, schedule: Q04DX003 (ip), vehicle: saline with Tween-80
  survivor count: 0 of 6
dose: 100.0 mg/kg/injection, schedule: Q04DX003 (ip), vehicle: saline with Tween-80
  survivor count: 0 of 6

## O=[N+]([O-])c1cc(Cl)ccc1O
[1]
  survivor count: 1 of 6

## CCOc1ccc(-n2c(=O)c(N=Nc3ccccc3)c(O)n(-c3ccc(C)cc3)c2=S)cc1
dose: 400.0 mg/kg/injection, schedule: Q01DX001 (ip), vehicle: saline with Tween-80
  survivor count: 1 of 6

## C1=CC2C=CC12 (stereo unspecified)
dose: 200.0 mg/kg/injection, schedule: Q01DX009 (ip), vehicle: saline with Tween-80
  survivor count: 6 of 6
dose: 400.0 mg/kg/injection, schedule: Q04DX003 (ip), vehicle: saline with Tween-80
  survivor count: 6 of 6

## CN1C(=O)NC(c2ccc(Cl)cc2)(c2ccc(Cl)cc2)C1=O
dose: 400.0 mg/kg/injection, schedule: Q01DX009 (ip), vehicle: distilled water + Tween-80
  survivor count: 4 of 6
[1]
  survivor count: 3 of 6
